Record: PubChem BioAssay AID652259 (Drosophila RNAi Screening Center, 2013)

- Screen: 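Knock-downs that push a Wingless-driven reporter up or down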 (primary screen)
- Cells: Drosophila clone 8 imaginal disc epithelial cells
- Reagents: long dsRNA against Drosophila genes
- Treatment: pathway stimulated by co-transfected Wingless expression plasmid
- Measurement: 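Dual luciferase reads per well after Wingless plasmid stimulation: reporter firefly light and Renilla control light; activity is firefly divided by Renilla, a ratio not deposited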
- Reading the numbers: firefly reporter light: higher = more Wg reporter light, before normalisation; Renilla control light: higher = more transfected or surviving cells
- Hit rule: 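a knock-down is a candidate when at least two out of four statistical tests show it departing from its plate mean; one test alone signals a weak candidate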
- Meaning of the calls: active = candidate regulator (raises or lowers reporter); inactive = not a candidate
In all, the deposit lists about 22,000 reagents; this is a random part of those with a known target gene and a result. Of all reagents, 233 (1.1%) got an active call. 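Light values are raw, unnormalised plate reads; the ratio scores behind the reporter calls were not deposited.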 The record does not give: the amount of reagent, the time to read-out, the dose of the treatment.

{"target gene":"CG4577","amplicon":"DRSC00658","firefly reporter light, replicate 1":4180,"firefly reporter light, replicate 2":8874,"Renilla control light, replicate 1":1172,"Renilla control light, replicate 2":3402,"outcome":"inactive"}
{"target gene":"Dmtn","amplicon":"DRSC12513","firefly reporter light, replicate 1":4267,"Renilla control light, replicate 1":1728,"outcome":"inactive"}
{"target gene":"Uba4","amplicon":"DRSC02194","firefly reporter light, replicate 1":1716,"firefly reporter light, replicate 2":7239,"Renilla control light, replicate 1":656,"Renilla control light, replicate 2":2600,"outcome":"inactive"}
{"target gene":"CG7910","amplicon":"DRSC16341","firefly reporter light, replicate 1":23606,"Renilla control light, replicate 1":5266,"outcome":"inactive"}
{"target gene":"Hr96","amplicon":"DRSC16707","firefly reporter light, replicate 1":3321,"firefly reporter light, replicate 2":5672,"Renilla control light, replicate 1":1257,"Renilla control light, replicate 2":2106,"outcome":"inactive"}
{"target gene":"Bx42","amplicon":"DRSC17743","firefly reporter light, replicate 1":2647,"firefly reporter light, replicate 2":5392,"Renilla control light, replicate 1":349,"Renilla control light, replicate 2":711,"outcome":"inactive"}
{"target gene":"CG13594","amplicon":"DRSC04229","firefly reporter light, replicate 1":3312,"firefly reporter light, replicate 2":9526,"Renilla control light, replicate 1":873,"Renilla control light, replicate 2":2677,"outcome":"inactive"}
{"target gene":"nolo","amplicon":"DRSC03705","firefly reporter light, replicate 1":6496,"Renilla control light, replicate 1":1522,"outcome":"inactive"}
{"target gene":"nolo","amplicon":"DRSC03719","firefly reporter light, replicate 1":2707,"firefly reporter light, replicate 2":6843,"Renilla control light, replicate 1":675,"Renilla control light, replicate 2":2377,"outcome":"inactive"}
{"target gene":"nolo","amplicon":"DRSC03720","firefly reporter light, replicate 1":5411,"firefly reporter light, replicate 2":6584,"Renilla control light, replicate 1":710,"Renilla control light, replicate 2":2226,"outcome":"inactive"}
{"target gene":"CG44325","amplicon":"DRSC18039","firefly reporter light, replicate 1":23788,"Renilla control light, replicate 1":11779,"outcome":"inactive"}
{"target gene":"CG44325","amplicon":"DRSC18423","firefly reporter light, replicate 1":22737,"Renilla control light, replicate 1":9957,"outcome":"inactive"}

Ordered by “firefly reporter light, replicate 2” (descending): some entries from above.
{"target gene":"CG13594","amplicon":"DRSC04229","firefly reporter light, replicate 1":3312,"firefly reporter light, replicate 2":9526,"Renilla control light, replicate 1":873,"Renilla control light, replicate 2":2677,"outcome":"inactive"}
{"target gene":"Bx42","amplicon":"DRSC17743","firefly reporter light, replicate 1":2647,"firefly reporter light, replicate 2":5392,"Renilla control light, replicate 1":349,"Renilla control light, replicate 2":711,"outcome":"inactive"}
